From patent publication US20230101768A1, “METHOD TO TREAT MANGANESE TOXICITY AND MANGANESE-INDUCED PA[…] HUMANS” (priority 2021, published 2023)

Tested on: C57BL/6J mice
Settings: 4 weeks treatment
Protocol: To assay for the protective effect of roxadustat, animals were exposed to roxadustat or vehicle with or without manganese in drinking water from ˜4 weeks of age. Treatment lasted for 4 weeks from initiation. Roxadustat (Selleckchem) was prepared as a 50 mg/ml stock solution in DMSO, then diluted to 1 mg/ml in sterile phosphate buffered saline (PBS), and delivered by daily i.p. injection at 10 mg/kg. Vehicle was 2% DMSO in PBS. For this experiment, drinking water manganese levels were adjusted to 0.138 mg absolute manganese/ml so that animals received ˜30 mg absolute manganese/kg daily. A higher level of manganese was used because exposure was initiated after weaning, which was necessary because daily i.p. injections for roxadustat delivery were not possible in the pre-weaning period.
Animals were euthanized using carbon dioxide and tissue dissected for qRT-PCR or ICPMS analyses as described by us previously (50).
Inductively coupled plasma mass spectrometry. Metal measurements using ICP-MS were performed exactly as described by us previously (47, 50, 51, 99).

| Structure (SMILES) | Levels of other metals (Fe, Cu, and Zn) in blood and brain |
| --- | --- |
| O.O.O.O.[Cl][Mn][Cl] [manganese, manganeseCl2.4H2O] | not impacted |
| Cc1nc(C(=O)NCC(=O)O)c(O)c2ccc(Oc3ccccc3)cc12 [roxadustat, 2-[(4-hydroxy-1-methyl-7-phenoxyisoquinoline-3-carbonyl)amino]acetic acid] | not impacted |
